# Assay results published in PubChem BioAssay AID651640 (Broad Institute, 2012).
# In all, about 350,000 compounds went through this assay and about 6,000 (1.7%) were called active. The shares of active, inactive and inconclusive entries below differ from those in the screen. Cut-off read from the data, not from the text of the source: active = CPE inhibition above about 20% (passing the limit was not always enough); inconclusive = no clear call, values can overlap the other calls; tested in BHK-21 cells. Some compounds were tested as several samples or in several runs, with calls that do not always agree.
# Assay: protection of cells from dengue 2 killing – plate reader, single concentration, primary screen (AID 651640);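 note: 0% = median of neutral control wells and 100% = median of positive control wells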
# Conditions: DENV2-infected cells, cytopathic effect rescue, at 9.99 µM, active compounds read high
row,SMILES,CPE inhibition
1,CO[C@H]1CN(C)C(=O)c2cc(NC(=O)c3cccc(F)c3)ccc2OC[C@@H](C)NC[C@@H]1C,inconclusive: 41.9%
2,CC=Cc1ccc2n(c1=O)C[C@H]1[C@H](CO)[C@@H](C(=O)NCC(F)(F)F)[C@@H]2N1C(C)=O (mixture of isomers),inconclusive: 33.3%
3,C[C@@H]1CN([C@@H](C)CO)C(=O)c2cc(NC(=O)Cc3ccccc3)ccc2O[C@H]1CN(C)CC1CC1,active: 31.5%
4,C[C@H](CO)N1C[C@H](C)[C@H](CN(C)Cc2ccc(Cl)c(Cl)c2)Oc2ccc(NC(=O)Nc3ccc4c(c3)OCO4)cc2CC1=O,inactive: 1.39%
5,O=S1(=O)CCOC[C@H](c2ccccc2)N1Cc1cccc(Cl)c1,inactive: 6.12%
6,CCc1noc(C)c1C(=O)Nc1nc(-c2ccc(OC)cc2OC)cs1,inconclusive: 53.4%
7,C[C@H]1CN([C@@H](C)CO)C(=O)c2cc(NC(=O)Nc3ccc(F)cc3)ccc2O[C@@H]1CN(C)C(=O)Nc1ccc(F)cc1,inconclusive: 35%
8,COc1cc(NC(=O)C2CC(=O)N(CCc3ccc(F)cc3)C2)cc(OC)c1OC (stereo not drawn),inconclusive: 20.5%
9,Cc1ccc(-c2ccc3c(c2)O[C@@H](CN(C)C(=O)Nc2ccc(C(F)(F)F)cc2)[C@H](C)CN([C@H](C)CO)S3(=O)=O)cc1,inconclusive: 36.3%
10,CCSc1nc2c(cnn2-c2ccc(C)cc2)c(=O)[nH]1,inconclusive: 37.2%
11,CCCN(CCC)C(=O)CSc1nc2c(sc(=S)n2-c2ccc(OCC)cc2)c(=O)[nH]1,inconclusive: 27.4%
12,CC(C)CNC(=O)C1(C)CCCN1C(=O)c1cncc(Br)c1 (stereo not drawn),active: 26.3%
13,O=C(CN1C(=O)NC2(CCCCC2)C1=O)Nc1cccc(S(=O)(=O)N2CCCC2)c1,inconclusive: 44.2%
14,C[C@@H]1CN([C@@H](C)CO)C(=O)Cc2cc(NC(=O)Nc3ccc(C(F)(F)F)cc3)ccc2O[C@H]1CN(C)CC1CCCCC1,inactive: -11%
15,COc1ccc(CN(C)C[C@H]2OCCCC[C@H](C)Oc3ccc(NC(=O)CCCN(C)C)cc3C(=O)N([C@H](C)CO)C[C@H]2C)cc1,inactive: 11.4%
16,C[C@H]1CN([C@@H](C)CO)C(=O)c2cccc(NS(=O)(=O)c3ccc(F)cc3)c2O[C@@H]1CN(C)C(=O)Nc1ccc(F)cc1,inactive: 10.8%
17,CC(C)NC(=O)N1Cc2cc(C(=O)NCC(F)(F)F)nc(-c3cccc(-c4cc5ccccc5o4)c3)c2[C@@H]1CCO,inconclusive: 35.3%
18,C[C@H]1CN([C@@H](C)CO)C(=O)CCCn2nncc2CO[C@H]1CN(C)S(=O)(=O)c1ccc(Oc2ccccc2)cc1,active: 29.6%
19,Cc1cccc(N2C(=O)N3[C@H](c4ccc(Br)cc4)[C@@H]4C(=O)N(C(C)(C)C)C(=O)[C@@H]4[C@]3(C)C2=O)c1,active: 25.7%
20,CO[C@@H]1CN(C)C(=O)c2ccc(NC(=O)Nc3cccc(F)c3)cc2OC[C@@H](C)N(C(C)=O)C[C@H]1C,active: 109%
21,CCOC(=O)c1nnn(CC(=O)NC(=O)Nc2ccccc2)c1C(=O)OCC,inactive: -3.99%
22,O=C(COC(=O)c1ccc(-c2ccc([N+](=O)[O-])cc2)o1)NC(=O)NC1CCCCC1,inactive: -4.86%
23,CCOC(=O)c1ccc(NC(=S)Nc2ccc3[nH]c(=O)[nH]c3c2)cc1,inconclusive: 29.4%

# Ordered by molecular weight (smallest number first): some entries from above
row,SMILES,CPE inhibition
12,CC(C)CNC(=O)C1(C)CCCN1C(=O)c1cncc(Br)c1 (stereo not drawn),active: 26.3%
21,CCOC(=O)c1nnn(CC(=O)NC(=O)Nc2ccccc2)c1C(=O)OCC,inactive: -3.99%
8,COc1cc(NC(=O)C2CC(=O)N(CCc3ccc(F)cc3)C2)cc(OC)c1OC (stereo not drawn),inconclusive: 20.5%
19,Cc1cccc(N2C(=O)N3[C@H](c4ccc(Br)cc4)[C@@H]4C(=O)N(C(C)(C)C)C(=O)[C@@H]4[C@]3(C)C2=O)c1,active: 25.7%

# Later entries.

row,SMILES,CPE inhibition
1,CN(Cc1ccccc1N1CCCC1)C(=O)c1cc2cc(Cl)ccc2o1,inconclusive: 28.9%
2,CCC(=O)Nc1ccc2c(c1)C(=O)N(C)C[C@@H](OC)[C@H](C)CN[C@@H](C)CO2,inconclusive: 43.2%
3,COCC(=O)Nc1ccc2c(c1)OC[C@@H](C)N(CC1CC1)C[C@@H](C)[C@H](OC)CN(C)C2=O,inconclusive: 44.6%
4,CN(C)C(=O)C[C@@H]1C[C@H]2c3cc(NC(=O)Nc4ccccc4)ccc3O[C@H]2[C@H](CO)O1,inactive: 3.06%
5,CO[C@H]1CN(C)C(=O)c2ccc(NS(=O)(=O)c3ccc(C)cc3)cc2OC[C@H](C)N(Cc2nccs2)C[C@@H]1C,inactive: -11.2%
6,C[C@H](CO)N1C[C@H](C)[C@@H](CN(C)CC2CC2)Oc2ccc(NC(=O)CCCCCC(=O)Nc3ccccc3N)cc2CC1=O,inactive: -3.29%
7,CO[C@@H]1CN(C)C(=O)c2ccc(NC(=O)C3CCOCC3)cc2OC[C@H](C)N(C(=O)c2ccccc2)C[C@H]1C,inconclusive: 26.6%
8,CCS(=O)(=O)c1nc(S(=O)(=O)c2ccc(C)cc2)c(N2CCC(O)CC2)s1,inactive: -6.28%
9,Cc1ccc(CNC(=O)CCc2c(C)nc3c(c(C)nn3-c3ccc(C)cc3)c2C)cc1,inconclusive: 21%
10,COc1ccc2c3c([nH]c2c1)[C@@H](CO)N(C(=O)Cc1ccccc1)CC31CN(C(=O)Cc2ccccc2)C1,inactive: -4.62%
11,CC(=O)N(C)C[C@@H]1Oc2cc(C#CCC(C)C)ccc2S(=O)(=O)N([C@H](C)CO)C[C@H]1C,inactive: 0.807%
12,COc1cccc(-c2cnc3c(c2)C(=O)N([C@@H](C)CO)C[C@@H](C)[C@@H](CN(C)Cc2ccccc2)O3)c1,inconclusive: 111%
13,COc1ccc(/C(C)=N/NC(=O)c2nnn(-c3nonc3N)c2-c2cccs2)cc1,inconclusive: 23.5%
14,CN(C)C(=O)C[C@H]1CC[C@@H]2[C@H](COC[C@H](O)CN2C(=O)C2CC2)O1,inactive: 0.118%
15,COc1ccc(C2C(C(=O)c3ccccc3)N3c4ccccc4C=CC3C2[N+](=O)[O-])cc1 (stereo not drawn),inactive: 3.4%
16,C[C@H]1CCCCO[C@@H](CN(C)Cc2ccncc2)[C@@H](C)CN([C@@H](C)CO)C(=O)c2cc(N(C)C)ccc2O1,inconclusive: 54.4%
17,CCCNC(=O)Nc1ccc2c(c1)C(=O)N(C)C[C@H](OC)[C@H](C)CN[C@@H](C)CO2,inconclusive: 31.1%
18,CC(=NNC(N)=O)C1=C(O)C(C(C)C)NC1=O (stereo not drawn),inconclusive: 59.9%
19,Cc1ccc(S(=O)(=O)Nc2ccc3c(c2)C(=O)N([C@H](C)CO)C[C@H](C)[C@H](CN(C)C(=O)Nc2ccc(C(F)(F)F)cc2)OCCCC[C@H](C)O3)cc1,active: 53%
20,CO[C@H]1CN(C)C(=O)c2cc(NC(=O)c3cnccn3)ccc2OC[C@@H](C)N(CC2CC2)C[C@@H]1C,active: 26.7%
21,COc1cccc(S(=O)(=O)Nc2ccc3c(c2)C(=O)N(C)C[C@@H](OC)[C@@H](C)CN[C@H](C)CO3)c1,active: 22.4%
22,C[C@H](CO)N1C[C@H](C)[C@H](CN(C)Cc2ccc(F)cc2)Oc2ncc(-c3cccc(C(F)(F)F)c3)cc2C1=O,inactive: 1.57%
23,O=C(C[C@H]1C=C[C@@H](NC(=O)Nc2ccccc2)[C@@H](CO)O1)NCc1ccccn1,inactive: 13.2%

row,SMILES,CPE inhibition
1,O=C(C[C@@H]1C[C@@H]2c3cc(NC(=O)Nc4ccccc4)ccc3O[C@@H]2[C@H](CO)O1)NCc1ccccc1,inconclusive: 25.9%
2,CCOc1ccc(C2CC(=O)NC(SCC(=O)OC)=C2C#N)cc1 (stereo not drawn),inconclusive: 28%
3,COc1cc(C(=O)OCC(=O)N2CCN(C(C)=O)CC2)ccc1OCC(C)C,inconclusive: 42.7%
4,CCOC(=O)CCN,inconclusive: 33.5%
5,CCC(NC(=O)c1ccccc1NC(=O)C(C)(C)C)C(=O)N1CC(C)OC(C)C1 (stereo not drawn),inconclusive: 35.4%
6,CCOC(=O)c1sc(NC(=O)C2CSC3(C)CCC(=O)N23)nc1C (stereo not drawn),inconclusive: 45.1%
7,C[C@H]1CCCCO[C@@H](CN(C)Cc2ccc(C(F)(F)F)cc2)[C@@H](C)CN([C@@H](C)CO)C(=O)c2cc(NS(=O)(=O)c3ccc(Cl)cc3)ccc2O1,inconclusive: 38.1%
8,O=C(C1CCCCC1)N1C[C@@H]2[C@H](c3ccccc31)[C@H](CO)N2Cc1ccccc1Cl,inactive: -8.69%
9,C[C@H]1CN([C@@H](C)CO)C(=O)c2cc(N(C)C)ccc2O[C@H]1CN(C)S(C)(=O)=O,inactive: 7.47%
10,C[C@@H]1CN([C@H](C)CO)C(=O)c2cc(-c3ccccc3)cnc2O[C@H]1CN(C)C(=O)Cc1cccnc1,inactive: -5.2%
11,COc1ccc(NC(=O)N2[C@@H]3CNC[C@H]2C3c2ccc(-c3ccccc3C)cc2)cc1 (stereo partly drawn),inconclusive: 37.6%
12,COCCC(=O)N1CCC(Oc2ccc(C(=O)NCCCC3CCCC3)cc2)CC1,inconclusive: 21.5%
13,Cc1cc(C)cc(NC(=S)N2CCN(c3ncccn3)CC2)c1,inactive: 0.0135%
14,CCCC(=O)Nc1ccc2c(c1)C(=O)N(C)[C@H]1CC[C@H](CC(=O)NCC3CC3)O[C@@H]1CO2,inconclusive: 82.5%
15,Cc1ccc(NC2c3ncccc3C(=O)N2Cc2cccs2)cc1 (stereo not drawn),inactive: -3.35%
16,CC(C)NC(=O)N(C)C[C@@H]1Oc2c(NC(=O)C3CCOCC3)cccc2C(=O)N([C@H](C)CO)C[C@@H]1C,inactive: 1.15%
17,COc1ccc(NC(=O)Nc2ccc3c(c2)C(=O)N([C@@H](C)CO)C[C@H](C)[C@@H](CN(C)S(=O)(=O)c2ccc(OC)cc2)O3)cc1,inactive: -2.06%
18,CCN(CC)S(=O)(=O)c1cccc(NC(=O)COC(=O)c2cccs2)c1,inconclusive: 30.5%
19,C[C@@H]1CN([C@@H](C)CO)C(=O)c2ccccc2-c2ccccc2CO[C@H]1CN(C)S(=O)(=O)c1ccccc1,inactive: 3.83%
20,O=C(C[C@H]1C=C[C@H](NC(=O)C2CC2)[C@@H](CO)O1)NCCCN1CCOCC1,inconclusive: 31.2%
21,Cc1ccc(NC(=O)Cn2cnc3ccccc32)cc1C,inactive: -2.06%
22,Cc1noc(C)c1S(=O)(=O)Nc1ccc2c(c1)C(=O)N([C@H](C)CO)C[C@@H](C)[C@H](CN(C)Cc1ccc(Cl)c(Cl)c1)O2,inactive: -7.45%
